The target in assay [1] is T1, Lymphoid-specific helicase (LSH), exogenous in 293T cells (UniProt Q9NRZ9).
T1 sequence: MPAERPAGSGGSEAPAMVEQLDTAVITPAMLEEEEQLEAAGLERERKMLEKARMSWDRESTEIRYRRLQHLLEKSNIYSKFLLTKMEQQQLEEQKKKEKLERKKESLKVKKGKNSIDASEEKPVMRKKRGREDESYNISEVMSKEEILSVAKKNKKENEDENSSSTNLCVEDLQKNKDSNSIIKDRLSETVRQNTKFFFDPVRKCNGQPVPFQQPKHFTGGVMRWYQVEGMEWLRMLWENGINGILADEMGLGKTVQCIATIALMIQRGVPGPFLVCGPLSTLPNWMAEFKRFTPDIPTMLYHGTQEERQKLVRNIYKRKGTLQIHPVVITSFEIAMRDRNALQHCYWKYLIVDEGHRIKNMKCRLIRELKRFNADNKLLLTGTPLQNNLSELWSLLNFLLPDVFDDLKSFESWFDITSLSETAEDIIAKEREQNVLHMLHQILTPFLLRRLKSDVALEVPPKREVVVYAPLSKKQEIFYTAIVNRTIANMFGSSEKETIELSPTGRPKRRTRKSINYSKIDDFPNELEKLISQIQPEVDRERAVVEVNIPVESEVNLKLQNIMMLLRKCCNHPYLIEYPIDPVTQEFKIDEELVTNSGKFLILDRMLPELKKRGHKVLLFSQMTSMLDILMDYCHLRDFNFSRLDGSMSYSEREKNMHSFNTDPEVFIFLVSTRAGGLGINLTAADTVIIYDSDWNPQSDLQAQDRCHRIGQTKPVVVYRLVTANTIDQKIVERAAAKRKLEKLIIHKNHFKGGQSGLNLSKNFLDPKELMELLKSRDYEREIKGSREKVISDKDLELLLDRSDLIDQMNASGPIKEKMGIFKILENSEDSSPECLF
The experiment in a line: co-IP; exogenous proteins in 293T cells, lysate in IP buffer with protease inhibitors, antibody overnight at 4°C, Dynabeads Protein G, immunoblot with anti-USP5 or anti-LSH. In general terms: A western blot detects proteins with antibodies after separation by electrophoresis.

Sequences of proteins named here, by UniProt entry; tags and fusion partners are left off.
UniProt P45974: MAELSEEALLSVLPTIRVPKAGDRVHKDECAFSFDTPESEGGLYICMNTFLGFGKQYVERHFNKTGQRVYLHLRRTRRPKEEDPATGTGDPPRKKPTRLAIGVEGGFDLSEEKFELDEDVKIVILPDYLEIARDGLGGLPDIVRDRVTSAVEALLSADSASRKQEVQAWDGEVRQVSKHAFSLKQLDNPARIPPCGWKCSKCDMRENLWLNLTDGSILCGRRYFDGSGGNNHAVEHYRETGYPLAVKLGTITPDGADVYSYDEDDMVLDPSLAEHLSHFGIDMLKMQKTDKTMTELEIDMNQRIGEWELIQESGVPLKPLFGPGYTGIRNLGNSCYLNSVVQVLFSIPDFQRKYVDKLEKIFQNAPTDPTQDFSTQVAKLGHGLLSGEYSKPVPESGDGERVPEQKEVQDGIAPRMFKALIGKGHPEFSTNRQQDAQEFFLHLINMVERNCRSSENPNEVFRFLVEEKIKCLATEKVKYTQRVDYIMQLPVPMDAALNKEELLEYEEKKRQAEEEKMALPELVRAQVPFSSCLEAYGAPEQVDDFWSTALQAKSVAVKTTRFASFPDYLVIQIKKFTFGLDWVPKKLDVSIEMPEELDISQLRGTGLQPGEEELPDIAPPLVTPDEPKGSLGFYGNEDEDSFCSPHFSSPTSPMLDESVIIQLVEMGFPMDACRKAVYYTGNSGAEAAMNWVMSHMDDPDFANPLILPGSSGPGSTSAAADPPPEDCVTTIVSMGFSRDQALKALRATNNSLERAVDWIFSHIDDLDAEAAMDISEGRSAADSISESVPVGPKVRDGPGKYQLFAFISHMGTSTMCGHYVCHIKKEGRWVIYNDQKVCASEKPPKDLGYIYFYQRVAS

In assay [2] the target is T2, Lymphoid-specific helicase (LSH), endogenous in HepG2 cells (human (endogenous in HepG2)) (UniProt Q9NRZ9).
T2 sequence: T1 sequence
The experiment in a line: co-IP; endogenous proteins, HepG2 lysate in IP buffer with protease inhibitors, antibody overnight at 4°C, Dynabeads Protein G, immunoblot with anti-USP5 or anti-LSH.

Results are given in words; binding and its absence hold for the method and conditions named. Binding seen in cells or lysates may run through a third protein. Some results given as binding are weak or reduced against the parent protein; the word gives no strength.

Binding data for 2 substances are collected here from article PMC10363799.

Regarding “Ubiquitin-specific protease 5 (USP5), exogenous in 293T cells (from UniProt P45974 1-858) (enzyme)”, the binding result in assay [1] was “binds”.
Consider “Ubiquitin-specific protease 5 (USP5), endogenous in HepG2 cells (from UniProt P45974 1-858) (enzyme)”, for which, in assay [2], the binding result is listed as “binds”.
